In EP4713368A1:
These are yes or no findings as the source states them, for the method shown. Some results given as binding are weak or reduced against the parent protein; the word gives no strength.

Sequences of proteins named here, by UniProt entry; tags and fusion partners are left off. A change or cut given only in a name is not applied to a line headed by its entry.
UniProt P10747: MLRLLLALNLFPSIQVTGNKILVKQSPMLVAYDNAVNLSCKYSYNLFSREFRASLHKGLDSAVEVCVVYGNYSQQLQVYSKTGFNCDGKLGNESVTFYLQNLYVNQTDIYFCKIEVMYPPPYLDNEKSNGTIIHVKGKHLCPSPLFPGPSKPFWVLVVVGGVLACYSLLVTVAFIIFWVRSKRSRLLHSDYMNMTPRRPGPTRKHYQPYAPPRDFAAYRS

Biological target: human CD28 (human) (UniProt P10747)
Test: affinity maturation of CD28-binding antibodies (Example 10: Discovery of Additional Antibodies that Bind to CD28)

binding | Binder
binds | Ab No. 61c (antibody, V domains shown) VH: EVQLLESGGGLVQPGGSLRLSCAASGFTFTHYAMSWVRQAPGKGLEWVSAISASGEVTYYADSVKGRFTISRDNSKNTLYLQMNSLRAEDTAVYYCVRDSPHMATYKSYYYYGMDVWGQGTTVTVSS VL: DIVMTQSPDSLAVSLGERATINCKSSQSLLNARTGKNYLAWYQQKPGQPPKLLIYWASTRESGVPDRFSGSGSGTDFTLTISSLQAEDVAVYYCKQSYSLRTFGGGTKVEIK
binds | Ab No. 68b (antibody, V domains shown) VH: EVQLVESGGGLVQPGGSLRLSCAASGFTFGDYSMNWVRQAPGKGLEWVSYISSSSDTIFYADSVKGRFTISRDNAKNSLYLQMNSLRAEDTAVYYCAREVHRGWGAFDIWGQGTMVTVSS VL: DIVMTQSPDSLAVSLGERATINCKSSQSLLNARTGKNYLAWYQQKPGQPPKLLIYWASTRESGVPDRFSGSGSGTDFTLTISSLQAEDVAVYYCKQSYSLRTFGGGTKVEIK
binds | Ab No. 68a (antibody, V domains shown) VH: EVQLVESGGGLVQPGGSLRLSCAASGFTFSSFSMNWVRQAPGKGLEWVSYIASDASTIYYADSVKGRFTISRDNAKNSLYLQMNSLRAEDTAVYYCAREVHRGWGAFDIWGQGTMVTVSS VL: DIVMTQSPDSLAVSLGERATINCKSSQSLLNARTGKNYLAWYQQKPGQPPKLLIYWASTRESGVPDRFSGSGSGTDFTLTISSLQAEDVAVYYCKQSYSLRTFGGGTKVEIK
binds | Ab No. 61d (antibody, V domains shown) VH: EVQLLESGGGLVQPGGSLRLSCAASGFTFSNYAMSWVRQAPGKGLEWVSAIGGSGDETYYADSVKGRFTISRDNSKNTLYLQMNSLRAEDTAVYYCTRDSPHMATYKSYYYYGMDVWGQGTTVTVSS VL: DIVMTQSPDSLAVSLGERATINCKSSQSLLNARTGKNYLAWYQQKPGQPPKLLIYWASTRESGVPDRFSGSGSGTDFTLTISSLQAEDVAVYYCKQSYSLRTFGGGTKVEIK
binds | Ab No. 68e (antibody, V domains shown) VH: EVQLVESGGGLVQPGGSLRLSCAASGFTFSDVSMNWVRQAPGKGLEWVSYISSPADTIYYADSVKGRFTISRDNAKNSLYLQMNSLRAEDTAVYYCAREVHRGWGAFDIWGQGTMVTVSS VL: DIVMTQSPDSLAVSLGERATINCKSSQSLLNARTGKNYLAWYQQKPGQPPKLLIYWASTRESGVPDRFSGSGSGTDFTLTISSLQAEDVAVYYCKQSYSLRTFGGGTKVEIK
binds | Ab No. 68d (antibody, V domains shown) VH: EVQLVESGGGLVQPGGSLRLSCAASGFTFHSYSMNWVRQAPGKGLEWVSYIDASASTISYADSVKGRFTISRDNAKNSLYLQMNSLRAEDTAVYYCAREVHRGWGAFDIWGQGTMVTVSS VL: DIVMTQSPDSLAVSLGERATINCKSSQSLLNARTGKNYLAWYQQKPGQPPKLLIYWASTRESGVPDRFSGSGSGTDFTLTISSLQAEDVAVYYCKQSYSLRTFGGGTKVEIK
binds | Ab No. 61e (antibody, V domains shown) VH: EVQLLESGGGLVQPGGSLRLSCAASGFTFEHYAMSWVRQAPGKGLEWVSAISASGGSTYYADSVKGRFTISRDNSKNTLYLQMNSLRAEDTAVYYCARDSPHMATYKSYYYYGMDVWGQGTTVTVSS VL: DIVMTQSPDSLAVSLGERATINCKSSQSLLNARTGKNYLAWYQQKPGQPPKLLIYWASTRESGVPDRFSGSGSGTDFTLTISSLQAEDVAVYYCKQSYSLRTFGGGTKVEIK
binds | Ab No. 68f (antibody, V domains shown) VH: EVQLVESGGGLVQPGGSLRLSCAASGFTFSDYSMTWVRQAPGKGLEWVSYISSSASTIYYADSVKGRFTISRDNAKNSLYLQMNSLRAEDTAVYYCAREVHRGWGAFDIWGQGTMVTVSS VL: DIVMTQSPDSLAVSLGERATINCKSSQSLLNARTGKNYLAWYQQKPGQPPKLLIYWASTRESGVPDRFSGSGSGTDFTLTISSLQAEDVAVYYCKQSYSLRTFGGGTKVEIK
binds | Ab No. 68c (antibody, V domains shown) VH: EVQLVESGGGLVQPGGSLRLSCAASGFTFVPYSMNWVRQAPGKGLEWVSYISPSADTIYYADSVKGRFTISRDNAKNSLYLQMNSLRAEDTAVYYCAREVHRGWGAFDIWGQGTMVTVSS VL: DIVMTQSPDSLAVSLGERATINCKSSQSLLNARTGKNYLAWYQQKPGQPPKLLIYWASTRESGVPDRFSGSGSGTDFTLTISSLQAEDVAVYYCKQSYSLRTFGGGTKVEIK
binds | Ab No. 70a (antibody, V domains shown) VH: EVQLLESGGGLVQPGGSLRLSCAASGFTFSDHLMSWVRQAPGKERELVSAISGSGGSTYYADSVKGRFTISRDNSKNTLYLQMNSLRAEDTAVYYCAAHASGSYYLDASRDYDADYWGQGTQVTVSS
binds | Ab No. 70c (antibody, V domains shown) VH: EVQLLESGGGLVQPGGSLRLSCAASGFTFSDYAMSWVRQAPGKERELVSIISASGGSTYYADSVKGRFTISRDNSKNTLYLQMNSLRAEDTAVYYCAAHASGSYYLDASRDYDADYWGQGTQVTVSS
binds | Ab No. 70d (antibody, V domains shown) VH: EVQLLESGGGLVQPGGSLRLSCAASGFTFSDYLMSWVRQAPGKERELVSAISGSGGSTYYADSVKGRFTISRDNSKNTLYLQMNSLRAEDTAVYYCAAHASGSYYLDASRDYDADYWGQGTQVTVSS
binds | Ab No. 70b (antibody, V domains shown) VH: EVQLLESGGGLVQPGGSLRLSCAASGFTFSDFLMSWVRQAPGKERELVSAISGSGGSTYYADSVKGRFTISRDNSKNTLYLQMNSLRAEDTAVYYCAAHASGSYYLDASRDYDADYWGQGTQVTVSS

Continued, binder first:

Binder | binding
Ab No. 61a (antibody, V domains shown) VH: EVQLLESGGGLVQPGGSLRLSCAASGFTFAHYAMSWVRQAPGKGLEWVSAISASGVETYYADSVKGRFTISRDNSKNTLYLQMNSLRAEDTAVYYCTRDSPHMATYKSYYYYGMDVWGQGTTVTVSS VL: DIVMTQSPDSLAVSLGERATINCKSSQSLLNARTGKNYLAWYQQKPGQPPKLLIYWASTRESGVPDRFSGSGSGTDFTLTISSLQAEDVAVYYCKQSYSLRTFGGGTKVEIK | binds
Ab No. 61b (antibody, V domains shown) VH: EVQLLESGGGLVQPGGSLRLSCAASGFTFSNYAMSWVRQAPGKGLEWVSAISADAGSTYYADSVKGRFTISRDNSKNTLYLQMNSLRAEDTAVYYCTRDSPHMATYKSYYYYGMDVWGQGTTVTVSS VL: DIVMTQSPDSLAVSLGERATINCKSSQSLLNARTGKNYLAWYQQKPGQPPKLLIYWASTRESGVPDRFSGSGSGTDFTLTISSLQAEDVAVYYCKQSYSLRTFGGGTKVEIK | binds
Ab No. 46d (antibody, V domains shown) VH: QVQLVQSGAEVKKPGSSVKVSCKASGGTFSNYAISWVRQAPGQGLEWMGGIIPISGTATYAQKFQGRVTITADESTSTAYMELSSLRSEDTAVYYCARHSSSWGTAITSDYWGQGTLVTVSS VL: QSVLTQPPSVSGAPGQRVTISCTGSGSNIGAGYDVHWYQQLPGTAPKLLIYGNTNRPSGVPDRFSGSKSGTSASLAITGLQAEDEADYYCQSNDNSLRGILFGGGTKLTVL | binds
Ab No. 46e (antibody, V domains shown) VH: QVQLVQSGAEVKKPGSSVKVSCKASGGTFSSHAISWVRQAPGQGLEWMGGIIPVSGTANYAQKFQGRVTITADESTSTAYMELSSLRSEDTAVYYCARHSSSWGTAITSDYWGQGTLVTVSS VL: QSVLTQPPSVSGAPGQRVTISCTGSGSNIGAGYDVHWYQQLPGTAPKLLIYGNTNRPSGVPDRFSGSKSGTSASLAITGLQAEDEADYYCQSNDNSLRGILFGGGTKLTVL | binds
Ab No. 57a (antibody, V domains shown) VH: QVQLQESGPGLVKPSETLSLTCTVSGGSINFYYWSWIRQPPGKGLEWIGSIYPPGSTNYNPSLKSRVTISVDTSKNQFSLKLSSVTAADTAVYYCARTEVGATRPREDFQHWGQGTLVTVSS VL: QSVLTQPPSVSAAPGQKVTISCSGSSSNIGNNYVSWYQQLPGTAPKLLIYDNNKRPSGIPDRFSGSKSGTSATLGITGLQTGDEADYYCGTWDISLGWVFGGGTKLTVL | binds
Ab No. 57e (antibody, V domains shown) VH: QVQLQESGPGLVKPSETLSLTCTVSGGSINNYYWSWIRQPPGKGLEWIGSIYYPASTDYNPSLKSRVTISVDTSKNQFSLKLSSVTAADTAVYYCARTEVGATRPREDFQHWGQGTLVTVSS VL: QSVLTQPPSVSAAPGQKVTISCSGSSSNIGNNYVSWYQQLPGTAPKLLIYDNNKRPSGIPDRFSGSKSGTSATLGITGLQTGDEADYYCGTWDISLGWVFGGGTKLTVL | binds
Ab No. 57c (antibody, V domains shown) VH: QVQLQESGPGLVKPSETLSLTCTVSGGSIRDYYWSWIRQPPGKGLEWIGSIYYTGRTNYNPSLKSRVTISVDTSKNQFSLKLSSVTAADTAVYYCARTEVGATRPREDFQHWGQGTLVTVSS VL: QSVLTQPPSVSAAPGQKVTISCSGSSSNIGNNYVSWYQQLPGTAPKLLIYDNNKRPSGIPDRFSGSKSGTSATLGITGLQTGDEADYYCGTWDISLGWVFGGGTKLTVL | binds
Ab No. 57b (antibody, V domains shown) VH: QVQLQESGPGLVKPSETLSLTCTVSGGSIEPYYWSWIRQPPGKGLEWIGSIYYRGQTNYNPSLKSRVTISVDTSKNQFSLKLSSVTAADTAVYYCARTEVGATRPREDFQHWGQGTLVTVSS VL: QSVLTQPPSVSAAPGQKVTISCSGSSSNIGNNYVSWYQQLPGTAPKLLIYDNNKRPSGIPDRFSGSKSGTSATLGITGLQTGDEADYYCGTWDISLGWVFGGGTKLTVL | binds
Ab No. 57f (antibody, V domains shown) VH: QVQLQESGPGLVKPSETLSLTCTVSGGSISSAYWNWIRQPPGKGLEWIGSIYYPGQTNYNPSLKSRVTISVDTSKNQFSLKLSSVTAADTAVYYCARTEVGATRPREDFQHWGQGTLVTVSS VL: QSVLTQPPSVSAAPGQKVTISCSGSSSNIGNNYVSWYQQLPGTAPKLLIYDNNKRPSGIPDRFSGSKSGTSATLGITGLQTGDEADYYCGTWDISLGWVFGGGTKLTVL | binds
Ab No. 57d (antibody, V domains shown) VH: QVQLQESGPGLVKPSETLSLTCTVSGGSIGIYYWSWIRQPPGKGLEWIGSIYYSGSTDYNPSLKSRVTISVDTSKNQFSLKLSSVTAADTAVYYCARTEVGATRPREDFQHWGQGTLVTVSS VL: QSVLTQPPSVSAAPGQKVTISCSGSSSNIGNNYVSWYQQLPGTAPKLLIYDNNKRPSGIPDRFSGSKSGTSATLGITGLQTGDEADYYCGTWDISLGWVFGGGTKLTVL | binds
